Results are given in words; binding and its absence hold for the method and conditions named. Binding calls can cover weak binding; strength is not graded here.
Biological target: transcriptional factor (TIF1)
Experiment: yeast two-hybrid (PathCalling), detected several times with different libraries

- binding: binds
B1: Transketolase (TKT) (enzyme)
chain: MESYHKPDQQKLQALKDTANRLRISSIQATTAAGSGHPTSCCSAAEIMAVLFFHTMRYKSQDPRNPHNDRFVLSKGHAAPILYAVWAEAGFLAEAELLNLRKISSDLDGHPVPKQAFTDVATGSLGQGLGAACGMAYTGKYFDKASYRVYCLLGDGELSEGSVWEAMAFASIYKLDNLVAILDINRLGQSDPAPLQHQMDIYQKRCEAFGWHAIIVDGHSVEELCKAFGQAKHQPTAIIAKTFKGRGITGVEDKESWHGKPLPKNMAEQIIQEIYSQIQSKKKILATPPQEDAPSVDIANIRMPSLPSYKVGDKIATRKAYGQALAKLGHASDRIIALDGDTKNSTFSEIFKKEHPDRFIECYIAEQNMVSIAVGCATRNRTVPFCSTFAAFFTRAFDQIRMAAISESNINLCGSHCGVSIGEDGPSQMALEDLAMFRSVPTSTVFYPSDGVATEKAVELAANTKGICFIRTSRPENAIIYNNNEDFQVGQAKVVLKSKDDQVTVIGAGVTLHEALAAAELLKKEKINIRVLDPFTIKPLDRKLILDSARATKGRILTVEDHYYEGGIGEAVSSAVVGEPGITVTHLAVNRVPRSGKPAELLKMFGIDRDAIAQAVRGLITKA

From patent US20050233328A1
